Primary screen of a compound library

Mtb cholesterol medium: 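Growth of Mycobacterium tuberculosis over 4 days (cholesterol / DPPC medium with tyloxapol); the read-out is not stated. Compounds at 50 µM. Direction is inferred from retests: higher values go with more growth inhibition. About 69,000 compounds were tested under these conditions; 0.54% (about 370) showed 50% or more at least once.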
Mtb glucose medium: 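Phenotypic screen: M. tuberculosis growth, glucose 7H9 medium, 3 days; the read-out is not stated. Tested at 50 µM. Direction is inferred from retests: higher values go with more growth inhibition. Of about 69,000 compounds tested this way, about 760 (1.1%) reached 50% or more in at least one test.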

Results are given as percent effect.
The controls that fix the scale are not given in the record; negative values are as filed.
The compounds are a random part of those screened.
Two or more numbers in one place are separate tests of the same structure; such repeats can differ widely.

Compound,Mtb cholesterol medium,Mtb glucose medium
O=C(NC[C@H]1CCCN1)c1cc(COc2cccc(C(F)(F)F)c2)[nH]n1,-1.277,2.62
N#Cc1ccc(N2CCCN(c3nccs3)CC2)nc1,-20.45,2.533 and 3.297
CCc1cnc(N)nc1NCc1ccc(OC)c(OC)c1,-1.296 and -3.796,20.6 and 1.995
CCc1cc(N[C@H]2CCC[C@H]2CO)n2nccc2n1,-29.81,-9.794
CNC(=O)c1ccc(CN2CCC(N(C)Cc3noc(C)n3)C2)cc1 (stereo not given),-20.28,9.312
NC(=O)CN(C(=O)C1Cc2cc(Cl)ccc2O1)C1CCCC1 (stereo not given),-22.22,0.04682 and -36.64
Cc1cc(C)n(CC2CCCN2CCS(C)(=O)=O)n1 (stereo not given),2.324,11.72
O=C(O)C(F)(F)F.O=C(O)C(F)(F)F.[H][C@@]12COC[C@]1(COCc1ccncc1)CN(Cc1cccs1)C2,-16.35,-4.054
COc1cc(C#N)ccc1OCC(=O)NS(=O)(=O)c1ccccc1,-3.558,-12.96
O=C(CCSc1ccccc1)NCC1CCN(Cc2ccsc2)CC1,11.34,26.2
O=C1COc2ccc(S(=O)(=O)NCc3ccccc3)c3c2N1CCC3,3.077,11.07
Cc1nn(C)c(N(C)C)c1CNCc1ccc(OCC(N)=O)cc1.Cl,-9.373,-4.855
COc1ccc(C2=CCN(C(=O)CN(C)S(C)(=O)=O)CC2)cc1,-6.627,-6.964
COCC(=O)N1CCc2nc(-c3cnccn3)nc(O)c2C1,-16.34,13.88
[H][C@@]12CNC[C@]1([H])N(Cc1cccc(C#N)c1)CCO2,0.1774,-6.701 and 8.58
COCCN1CCC(CNC(=O)Nc2ccc(F)c(Cl)c2)C1 (stereo not given),-15.87,9.847
[H][C@@]12CN(CCOC)C[C@]1([H])[C@H](OC)CCN2C(=O)COc1ccccc1,-16.21,3.634
COc1ccc(-c2cc(C(=O)NCCC(C)C)n(C)n2)cc1,35.46,29.72 and 25.98
Cc1cccc(C(=O)N2CCSCC2)c1NC(=O)c1cccnc1,-1.138,4.746 and -25.87
[H][C@@]12CN(C(=O)[C@H]3CCCO3)C[C@]1([H])C(=O)N(CCOC)C2,-11.23,-12.28
CCOc1nn(CC)cc1-c1nnc(SCc2cccnc2)n1C,5.666,-0.9283 and -7.324
CN(C)C1CCN(C(=O)c2cccc(S(=O)(=O)NCC3(C)COC3)c2)C1 (stereo not given),-3.229,-17.84
[H][C@@]12CCC(=O)N(c3ccccc3)[C@]1([H])CCN2C(=O)C1CCOCC1,-11.01,9.576
CC(c1nc(C2CC2)no1)N(C)Cc1ccc(Cl)cc1 (stereo not given),22.13,43.42
COc1ccc(C(C)NCc2c[nH]nc2C)cc1Br.Cl (stereo not given),-17.29,-2.109 and -2.878
Cc1noc(-c2cccnc2N(C)Cc2cc(C)on2)n1,0.1691,-6.934
O=C(O)c1ccccc1C1CCN(Cc2ccc(-c3cc[nH]n3)o2)C1 (stereo not given),8.706,15.05
OC(c1cnn(-c2ccccc2)c1)C(F)(F)F (stereo not given),14.22,2.733
CN(CC(O)C1CC1)C(=O)Nc1ccc(F)c(-n2cccc2)c1 (stereo not given),9.329,-0.09648
O=C(c1ccc(NCc2cccc(F)c2)cc1)N1CCC(CO)CC1,-5.397,1.32
COC1CCCN(Cc2nc(Cc3ccccc3F)no2)C1 (stereo not given),9.08,31.59
Cc1cc(CN2CCN(C(=O)NCc3cccs3)CC2)no1,13.05,23.62
CCN1CCN(C)C2(CCN(Cc3ccc(C)o3)CC2)C1=O.O=C(O)C(F)(F)F.O=C(O)C(F)(F)F,-0.3959,-38.27
Cc1cc(CNCC2(O)CCCN(CCCc3ccccc3)C2=O)n[nH]1 (stereo not given),3.419,5.118 and 0.1296
c1ccc(C(Cn2cnnc2)N2CCOCC2)nc1 (stereo not given),0.009949 and -11.84,-12.29
Cn1cccc1C(=O)N1CCC(O)(CN2CCc3ccccc3C2)C1 (stereo not given),-6.543,-24.66
CCC[C@H]1CN(c2nccc(NCC)n2)C[C@@H]1NS(=O)(=O)N(C)C,-17.84,31.12 and 16.17
Cc1cc(NC(=O)C2CCN(c3ncccc3C#N)CC2)no1,-6.022,10.94
COc1ccc2c(c1)OCC(CNC(=O)CCc1c(C)n[nH]c1C)C2 (stereo not given),6.735,-3.415 and 5.992
Cc1noc(C)c1S(=O)(=O)NCC(C)(O)c1ccc2c(c1)OCO2 (stereo not given),-24.01,-16.03 and 9.155
CN(C)CC(=O)N1CCC2(CCc3cc(-c4cccnc4)ccc32)CC1.O=C(O)C(F)(F)F.O=C(O)C(F)(F)F,29.85,41.98 and 46.32
O=C(O)c1cccnc1CN1CCOc2ccccc2C1,2.818,5.21 and 25.59
COc1ccc(Cl)cc1C(=O)N1CCOC2(CNCCOC2)C1 (stereo not given),2.608,-3.291
CNC(=O)C(C)CN(C)C(=O)Nc1cc(-n2cccc2)ccc1F (stereo not given),-21.18,-12.46
CCCN(Cc1nnnn1C1CC1)CC1COc2ccccc2O1 (stereo not given),-25.49,-19.09
COc1ccc(CCN(C)C(=O)c2cc(C(C)=O)c[nH]2)cc1OC,-6.967,-5.022
[H][C@]12CC[C@]([H])(CN(C3Cc4ccccc4C3)C1)N(C(=O)CNC(N)=O)C2,-17.9,-6.157
CCN(CC(C)C#N)C(=O)CNc1cc(Cl)ccc1C(N)=O (stereo not given),-31.89 and 1.301,-18.58
Cc1cc(CN2CCN(Cc3ccc(C#N)cc3OC(F)F)CC2)no1,1.194,-4.183 and -8.699
CSc1ccc(-n2ccnc2-c2cc3n(n2)CCNC3)cc1,-19,-49.36
O=C1CCCN1CCN1CCCCC1Cn1cncn1 (stereo not given),-13.86,-2.663 and -31.35
CCC(CC)C(CNC(=O)Nc1ccc(C)cc1)N1CCOCC1 (stereo not given),7.87,14.16
Cc1cncc(C(=O)N2CCN(c3cnn(C)c(=O)c3)CC2)c1,-3.443,3.6
c1cc(CN2CCCC(c3noc(C4CC4)n3)C2)no1 (stereo not given),2.295,26.2
Cc1ccccc1N1CCN(C(=O)c2cscn2)C(C)C1 (stereo not given),-32.27,4.091

Data taken from ChEMBL document CHEMBL3988442, “University of Dundee, Small-Polar-MMV Screening Library” (2021).